According to the supplement of paper PMC7666118:
This is one part of the list.

Amino acid sequences for entries named in this document (tags omitted). A change or cut given only in a name is not applied to a line headed by its entry.
UniProt Q9NZJ9: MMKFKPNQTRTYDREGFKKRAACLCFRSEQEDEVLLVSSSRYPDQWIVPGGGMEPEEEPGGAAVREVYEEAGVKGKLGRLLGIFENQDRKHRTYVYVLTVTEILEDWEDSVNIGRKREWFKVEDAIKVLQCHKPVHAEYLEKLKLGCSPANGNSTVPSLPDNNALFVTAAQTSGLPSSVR
UniProt Q16656: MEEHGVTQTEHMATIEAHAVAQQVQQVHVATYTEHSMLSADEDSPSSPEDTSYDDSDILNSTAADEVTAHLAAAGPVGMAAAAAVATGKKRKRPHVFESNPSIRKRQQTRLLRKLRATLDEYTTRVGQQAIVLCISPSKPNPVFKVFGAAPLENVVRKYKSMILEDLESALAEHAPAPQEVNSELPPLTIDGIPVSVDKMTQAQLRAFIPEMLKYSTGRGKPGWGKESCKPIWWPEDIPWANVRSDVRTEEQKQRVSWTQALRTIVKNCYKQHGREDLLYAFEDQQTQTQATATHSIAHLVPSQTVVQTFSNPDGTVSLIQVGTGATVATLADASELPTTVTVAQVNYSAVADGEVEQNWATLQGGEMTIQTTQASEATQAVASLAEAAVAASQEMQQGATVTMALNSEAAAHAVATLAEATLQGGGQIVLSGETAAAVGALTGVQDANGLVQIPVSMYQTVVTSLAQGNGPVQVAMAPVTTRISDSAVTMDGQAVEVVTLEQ
UniProt P53384: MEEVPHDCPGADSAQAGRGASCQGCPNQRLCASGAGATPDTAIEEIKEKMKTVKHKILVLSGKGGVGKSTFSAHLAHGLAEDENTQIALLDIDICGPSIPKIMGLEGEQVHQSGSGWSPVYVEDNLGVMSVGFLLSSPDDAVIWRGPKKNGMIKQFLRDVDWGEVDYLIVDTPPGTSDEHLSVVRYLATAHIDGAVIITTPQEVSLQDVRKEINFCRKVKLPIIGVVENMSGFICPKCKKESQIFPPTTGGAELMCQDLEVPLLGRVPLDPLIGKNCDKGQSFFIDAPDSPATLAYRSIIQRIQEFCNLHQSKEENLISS
UniProt Q9BXW6, whole entry: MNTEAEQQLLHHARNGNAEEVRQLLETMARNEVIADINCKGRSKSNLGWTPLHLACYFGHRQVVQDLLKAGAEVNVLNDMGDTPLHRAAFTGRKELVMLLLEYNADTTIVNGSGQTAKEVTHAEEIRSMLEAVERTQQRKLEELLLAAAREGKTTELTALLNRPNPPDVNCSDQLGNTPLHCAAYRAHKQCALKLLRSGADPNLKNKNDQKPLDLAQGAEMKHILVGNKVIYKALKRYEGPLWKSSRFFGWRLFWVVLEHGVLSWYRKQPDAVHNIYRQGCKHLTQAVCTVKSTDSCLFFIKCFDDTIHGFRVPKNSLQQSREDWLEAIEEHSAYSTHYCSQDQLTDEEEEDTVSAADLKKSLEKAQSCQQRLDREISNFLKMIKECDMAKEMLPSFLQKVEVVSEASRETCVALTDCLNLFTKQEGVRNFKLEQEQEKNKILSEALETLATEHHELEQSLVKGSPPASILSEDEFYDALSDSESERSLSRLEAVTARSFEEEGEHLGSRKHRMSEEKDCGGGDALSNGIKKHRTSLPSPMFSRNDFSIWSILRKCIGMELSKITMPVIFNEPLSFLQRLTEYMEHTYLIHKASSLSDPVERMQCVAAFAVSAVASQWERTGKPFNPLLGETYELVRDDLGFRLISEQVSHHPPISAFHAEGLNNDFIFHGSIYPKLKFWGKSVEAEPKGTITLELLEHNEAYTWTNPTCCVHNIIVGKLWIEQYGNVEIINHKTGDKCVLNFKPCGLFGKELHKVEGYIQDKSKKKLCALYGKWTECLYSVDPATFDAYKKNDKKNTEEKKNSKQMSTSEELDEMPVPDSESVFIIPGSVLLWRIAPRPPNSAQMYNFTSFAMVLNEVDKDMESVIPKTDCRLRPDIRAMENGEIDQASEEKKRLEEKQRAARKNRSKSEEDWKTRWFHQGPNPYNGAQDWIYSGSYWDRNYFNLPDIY
UniProt Q15365, whole entry: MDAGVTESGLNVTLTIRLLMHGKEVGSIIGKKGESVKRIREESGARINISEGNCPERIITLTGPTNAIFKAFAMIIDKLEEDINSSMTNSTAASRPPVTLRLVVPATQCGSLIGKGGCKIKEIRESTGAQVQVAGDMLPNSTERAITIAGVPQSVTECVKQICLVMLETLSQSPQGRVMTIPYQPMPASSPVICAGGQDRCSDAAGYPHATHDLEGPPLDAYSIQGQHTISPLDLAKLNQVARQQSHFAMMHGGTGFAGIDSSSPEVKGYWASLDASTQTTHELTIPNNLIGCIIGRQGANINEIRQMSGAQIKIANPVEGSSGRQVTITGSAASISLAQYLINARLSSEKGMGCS
UniProt O14841: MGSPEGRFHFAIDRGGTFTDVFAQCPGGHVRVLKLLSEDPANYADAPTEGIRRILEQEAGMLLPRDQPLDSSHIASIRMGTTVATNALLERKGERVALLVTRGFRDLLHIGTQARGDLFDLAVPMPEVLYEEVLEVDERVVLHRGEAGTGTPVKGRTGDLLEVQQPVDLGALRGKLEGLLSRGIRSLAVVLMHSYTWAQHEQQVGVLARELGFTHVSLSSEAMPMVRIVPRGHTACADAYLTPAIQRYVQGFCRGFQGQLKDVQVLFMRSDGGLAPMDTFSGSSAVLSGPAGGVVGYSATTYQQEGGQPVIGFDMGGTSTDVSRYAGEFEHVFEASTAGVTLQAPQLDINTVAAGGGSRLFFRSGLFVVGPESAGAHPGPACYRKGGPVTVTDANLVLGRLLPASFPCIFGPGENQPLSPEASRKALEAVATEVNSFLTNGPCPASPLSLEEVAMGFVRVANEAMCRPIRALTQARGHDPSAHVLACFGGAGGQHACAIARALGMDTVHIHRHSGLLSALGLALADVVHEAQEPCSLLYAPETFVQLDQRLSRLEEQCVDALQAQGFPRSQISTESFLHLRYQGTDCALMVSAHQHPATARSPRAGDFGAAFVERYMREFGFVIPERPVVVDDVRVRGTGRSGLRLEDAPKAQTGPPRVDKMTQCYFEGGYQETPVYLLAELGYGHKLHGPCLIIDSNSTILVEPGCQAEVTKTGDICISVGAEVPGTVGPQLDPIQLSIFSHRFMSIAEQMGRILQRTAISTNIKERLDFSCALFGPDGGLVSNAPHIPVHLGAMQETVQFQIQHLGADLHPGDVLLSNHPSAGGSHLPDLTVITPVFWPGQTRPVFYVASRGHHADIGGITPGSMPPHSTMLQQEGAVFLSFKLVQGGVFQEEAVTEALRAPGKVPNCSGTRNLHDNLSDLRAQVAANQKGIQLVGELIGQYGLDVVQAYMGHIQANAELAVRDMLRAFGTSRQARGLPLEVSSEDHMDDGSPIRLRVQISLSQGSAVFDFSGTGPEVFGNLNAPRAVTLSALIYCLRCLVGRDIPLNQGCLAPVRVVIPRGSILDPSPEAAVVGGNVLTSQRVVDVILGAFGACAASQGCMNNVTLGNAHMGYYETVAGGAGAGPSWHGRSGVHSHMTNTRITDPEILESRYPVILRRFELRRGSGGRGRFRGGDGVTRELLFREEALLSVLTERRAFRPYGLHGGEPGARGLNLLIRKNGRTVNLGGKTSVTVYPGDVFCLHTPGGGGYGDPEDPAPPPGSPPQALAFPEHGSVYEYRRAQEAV
UniProt Q96D31, whole entry, looked up: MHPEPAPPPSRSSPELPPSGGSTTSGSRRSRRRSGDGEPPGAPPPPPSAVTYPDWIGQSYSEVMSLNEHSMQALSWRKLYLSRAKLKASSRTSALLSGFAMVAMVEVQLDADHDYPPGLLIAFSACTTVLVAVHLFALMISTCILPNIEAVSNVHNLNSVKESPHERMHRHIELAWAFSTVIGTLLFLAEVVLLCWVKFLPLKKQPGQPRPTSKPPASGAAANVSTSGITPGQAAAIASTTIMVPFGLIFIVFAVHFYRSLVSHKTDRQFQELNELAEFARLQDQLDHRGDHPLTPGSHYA
UniProt P11926: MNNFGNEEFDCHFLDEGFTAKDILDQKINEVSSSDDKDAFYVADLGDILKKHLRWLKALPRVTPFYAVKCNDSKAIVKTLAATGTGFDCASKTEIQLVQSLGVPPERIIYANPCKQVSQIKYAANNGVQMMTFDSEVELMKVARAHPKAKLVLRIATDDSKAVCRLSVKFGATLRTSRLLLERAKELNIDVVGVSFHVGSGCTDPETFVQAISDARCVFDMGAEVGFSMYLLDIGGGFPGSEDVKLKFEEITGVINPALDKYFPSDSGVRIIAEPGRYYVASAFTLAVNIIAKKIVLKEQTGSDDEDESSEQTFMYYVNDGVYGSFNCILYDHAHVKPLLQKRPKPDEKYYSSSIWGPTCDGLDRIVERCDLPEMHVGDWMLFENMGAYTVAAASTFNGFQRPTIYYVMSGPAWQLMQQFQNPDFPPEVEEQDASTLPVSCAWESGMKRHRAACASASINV
UniProt Q7Z417: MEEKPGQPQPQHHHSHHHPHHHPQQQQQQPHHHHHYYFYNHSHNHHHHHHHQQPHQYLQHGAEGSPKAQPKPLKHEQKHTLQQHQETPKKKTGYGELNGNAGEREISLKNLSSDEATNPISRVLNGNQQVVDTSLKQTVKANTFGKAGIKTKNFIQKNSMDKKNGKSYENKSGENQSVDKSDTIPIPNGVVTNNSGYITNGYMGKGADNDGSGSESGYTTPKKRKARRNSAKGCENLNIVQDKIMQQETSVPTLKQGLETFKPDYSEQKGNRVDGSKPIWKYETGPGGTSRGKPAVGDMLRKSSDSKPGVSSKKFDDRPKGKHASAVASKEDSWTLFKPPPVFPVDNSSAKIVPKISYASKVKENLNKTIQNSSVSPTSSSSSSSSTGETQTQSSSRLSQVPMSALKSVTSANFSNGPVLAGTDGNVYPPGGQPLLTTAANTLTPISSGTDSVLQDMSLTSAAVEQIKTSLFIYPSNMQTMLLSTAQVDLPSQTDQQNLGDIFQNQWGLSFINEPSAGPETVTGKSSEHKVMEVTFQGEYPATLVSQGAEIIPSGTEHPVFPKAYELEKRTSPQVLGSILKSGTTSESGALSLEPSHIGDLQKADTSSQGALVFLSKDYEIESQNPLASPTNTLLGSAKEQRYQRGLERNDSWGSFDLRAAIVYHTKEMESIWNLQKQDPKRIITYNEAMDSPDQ
UniProt P61457: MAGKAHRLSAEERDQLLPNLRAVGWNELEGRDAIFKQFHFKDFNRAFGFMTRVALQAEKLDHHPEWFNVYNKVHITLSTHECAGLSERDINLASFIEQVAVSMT
UniProt P53370: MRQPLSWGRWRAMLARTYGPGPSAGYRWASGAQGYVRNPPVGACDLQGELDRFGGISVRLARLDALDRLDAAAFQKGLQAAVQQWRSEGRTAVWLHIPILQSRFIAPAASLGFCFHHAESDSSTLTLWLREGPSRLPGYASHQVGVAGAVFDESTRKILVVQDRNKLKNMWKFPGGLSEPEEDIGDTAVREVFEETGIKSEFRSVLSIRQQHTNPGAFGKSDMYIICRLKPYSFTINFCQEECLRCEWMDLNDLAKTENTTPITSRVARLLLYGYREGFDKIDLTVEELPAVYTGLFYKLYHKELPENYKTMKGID
UniProt Q96GD0: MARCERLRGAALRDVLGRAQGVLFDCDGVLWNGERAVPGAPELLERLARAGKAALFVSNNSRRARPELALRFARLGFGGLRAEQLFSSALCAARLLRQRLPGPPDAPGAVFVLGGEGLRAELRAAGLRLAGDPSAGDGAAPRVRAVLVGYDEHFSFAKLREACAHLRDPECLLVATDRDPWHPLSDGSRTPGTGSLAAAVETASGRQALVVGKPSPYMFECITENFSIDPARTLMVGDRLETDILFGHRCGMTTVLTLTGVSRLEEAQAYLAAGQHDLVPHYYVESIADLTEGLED
UniProt Q8WV22: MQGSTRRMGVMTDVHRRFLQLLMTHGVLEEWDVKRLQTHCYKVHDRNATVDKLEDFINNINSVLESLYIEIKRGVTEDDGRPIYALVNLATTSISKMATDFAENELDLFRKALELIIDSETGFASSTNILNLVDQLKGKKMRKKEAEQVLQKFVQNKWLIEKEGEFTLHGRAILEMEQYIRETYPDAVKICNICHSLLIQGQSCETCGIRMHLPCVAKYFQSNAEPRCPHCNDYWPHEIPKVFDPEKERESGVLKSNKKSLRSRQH
UniProt Q8TEA1: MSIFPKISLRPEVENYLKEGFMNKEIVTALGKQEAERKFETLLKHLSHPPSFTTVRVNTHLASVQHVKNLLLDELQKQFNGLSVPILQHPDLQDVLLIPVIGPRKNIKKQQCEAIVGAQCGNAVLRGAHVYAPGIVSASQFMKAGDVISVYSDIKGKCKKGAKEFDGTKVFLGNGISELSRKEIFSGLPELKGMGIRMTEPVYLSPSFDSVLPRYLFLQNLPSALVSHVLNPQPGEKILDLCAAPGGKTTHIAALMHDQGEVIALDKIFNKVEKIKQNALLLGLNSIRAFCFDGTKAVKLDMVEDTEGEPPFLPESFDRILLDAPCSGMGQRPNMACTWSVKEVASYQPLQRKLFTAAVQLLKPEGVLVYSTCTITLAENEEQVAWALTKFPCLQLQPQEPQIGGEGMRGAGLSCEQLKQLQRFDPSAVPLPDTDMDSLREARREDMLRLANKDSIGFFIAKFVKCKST

Compound: COc1ccc(Cn2ccc3ccc(C(=O)NO)cc32)cc1
Experiment: dose-dependent thermal stabilisation call (2D-TPP, DLPTP, 10% FDR) (binary (1 = stabilised)); higher = stabilised by the compound
Details: system: HL-60 intact cells; concentration range 0.04-10 µM

For PDPR (UniProt Q8NCN5), which “dose-dependent thermal stabilisation call” value is on record?
Its value is inactive: 0.

With PAK1IP1 (UniProt Q9NWT1) as the target, how does the “dose-dependent thermal stabilisation call” value read?
Its value is inactive: 0.

NUDT4 (UniProt Q9NZJ9) was tested. Which “dose-dependent thermal stabilisation call” value did it give?
The value was inactive: 0.

How did the “dose-dependent thermal stabilisation call” value turn out when NRF1 (UniProt Q16656) was run?
The value was inactive: 0.

How did the “dose-dependent thermal stabilisation call” value turn out when OIP5 (UniProt O43482) was run?
The value was inactive: 0.

For PCNT (UniProt O95613), which “dose-dependent thermal stabilisation call” value is on record?
Its value is inactive: 0.

With PDLIM7 (UniProt Q9NR12) as the target, how does the “dose-dependent thermal stabilisation call” value read?
Its value is inactive: 0.

For NUBP1 (UniProt P53384), which “dose-dependent thermal stabilisation call” value is on record?
Its value is inactive: 0.

For OSBPL1A (UniProt Q9BXW6), which “dose-dependent thermal stabilisation call” value is on record?
Its value is inactive: 0.

For PCBP1 (UniProt Q15365), which “dose-dependent thermal stabilisation call” value is on record?
Its value is inactive: 0.

Which “dose-dependent thermal stabilisation call” value does the source give for OPLAH (UniProt O14841) here?
Its value is inactive: 0.

For NSF (UniProt P46459), which “dose-dependent thermal stabilisation call” value is on record?
Its value is inactive: 0.

With ORAI1 (UniProt Q96D31) as the target, how does the “dose-dependent thermal stabilisation call” value read?
The value was inactive: 0.

Which “dose-dependent thermal stabilisation call” value does the source give for NUP188 (UniProt Q5SRE5) here?
The value was inactive: 0.

How did the “dose-dependent thermal stabilisation call” value turn out when ODC1 (UniProt P11926) was run?
The value was inactive: 0.

With NUFIP2 (UniProt Q7Z417) as the target, how does the “dose-dependent thermal stabilisation call” value read?
Its value is inactive: 0.

PCBD1 (UniProt P61457) was tested. Which “dose-dependent thermal stabilisation call” value did it give?
The value was inactive: 0.

With NUDT15 (UniProt Q9NV35) as the target, how does the “dose-dependent thermal stabilisation call” value read?
Its value is inactive: 0.

NUDT6 (UniProt P53370) was tested. Which “dose-dependent thermal stabilisation call” value did it give?
Its value is inactive: 0.

With PDXP (UniProt Q96GD0) as the target, how does the “dose-dependent thermal stabilisation call” value read?
Its value is inactive: 0.

How did the “dose-dependent thermal stabilisation call” value turn out when PANK4 (UniProt Q9NVE7) was run?
The value was inactive: 0.

For PAPOLA (UniProt P51003), which “dose-dependent thermal stabilisation call” value is on record?
The value was inactive: 0.

With NSMCE1 (UniProt Q8WV22) as the target, how does the “dose-dependent thermal stabilisation call” value read?
The value was inactive: 0.

For PARP1 (UniProt P09874), which “dose-dependent thermal stabilisation call” value is on record?
The value was inactive: 0.

With NSUN6 (UniProt Q8TEA1) as the target, how does the “dose-dependent thermal stabilisation call” value read?
Its value is inactive: 0.

Which “dose-dependent thermal stabilisation call” value does the source give for NUCB1 (UniProt Q02818) here?
The value was inactive: 0.

With NT5DC1 (UniProt Q5TFE4) as the target, how does the “dose-dependent thermal stabilisation call” value read?
Its value is inactive: 0.
